From article doi:10.1101/775536
These are yes or no findings as the source states them, for the method shown. Binding seen in cells or lysates may run through a third protein. A result given as binding can be weak or reduced; the word gives no strength. For part of these data: Where a sequence is shown, tags or fusion partners need not be part of it.

By UniProt entry, the sequences of proteins in these tests, tags left out.
UniProt A0A0H2ZQL5: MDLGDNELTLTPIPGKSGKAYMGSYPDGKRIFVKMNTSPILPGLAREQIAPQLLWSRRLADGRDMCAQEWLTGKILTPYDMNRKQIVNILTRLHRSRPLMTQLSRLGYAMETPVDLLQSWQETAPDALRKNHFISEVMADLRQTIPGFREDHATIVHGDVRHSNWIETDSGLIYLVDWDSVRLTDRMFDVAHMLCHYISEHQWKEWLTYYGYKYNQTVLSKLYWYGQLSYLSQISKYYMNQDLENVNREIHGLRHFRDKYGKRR
UniProt A0ACD7PQ13: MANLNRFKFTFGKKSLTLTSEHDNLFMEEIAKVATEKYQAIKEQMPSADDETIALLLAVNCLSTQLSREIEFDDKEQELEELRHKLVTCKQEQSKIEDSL

Key:
[1] = target: CcrZ-LgBit (S. pneumoniae D39V); test: split reporter
[2] = target: DnaA (split-luciferase fusion) (S. pneumoniae); test: split reporter

CcrZ-LgBit (from UniProt A0A0H2ZQL5 1-264)
binding [1]: binds weakly

ZapA fused to SmBit (from UniProt A0ACD7PQ13 1-100)
binding [1]: binds weakly

B1: YabA (split-luciferase fusion) (protein, UniProt B1IBA4 1-105)
chain: MDKKELFDALDDFSQQLLVTLADVEAIKKNLKSLVEENTALRLENSKLRERLGEVEADAPVKAKHVRESVRRIYRDGFHVCNDFYGQRREQDEECMFCDELLYRE
binding [2]: binds
